This passage reports binding results from PMC10759229.

Chains of the proteins cited; added tags and fusions are not shown.
UniProt P67775: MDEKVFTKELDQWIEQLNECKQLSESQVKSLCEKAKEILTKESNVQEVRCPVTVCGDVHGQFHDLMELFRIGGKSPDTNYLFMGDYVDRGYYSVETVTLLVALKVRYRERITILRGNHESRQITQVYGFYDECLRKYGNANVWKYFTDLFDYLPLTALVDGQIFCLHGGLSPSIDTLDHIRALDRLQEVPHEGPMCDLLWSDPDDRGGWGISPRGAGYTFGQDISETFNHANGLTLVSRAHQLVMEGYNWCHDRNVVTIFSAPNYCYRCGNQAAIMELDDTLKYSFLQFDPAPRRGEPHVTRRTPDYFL
UniProt Q5S007: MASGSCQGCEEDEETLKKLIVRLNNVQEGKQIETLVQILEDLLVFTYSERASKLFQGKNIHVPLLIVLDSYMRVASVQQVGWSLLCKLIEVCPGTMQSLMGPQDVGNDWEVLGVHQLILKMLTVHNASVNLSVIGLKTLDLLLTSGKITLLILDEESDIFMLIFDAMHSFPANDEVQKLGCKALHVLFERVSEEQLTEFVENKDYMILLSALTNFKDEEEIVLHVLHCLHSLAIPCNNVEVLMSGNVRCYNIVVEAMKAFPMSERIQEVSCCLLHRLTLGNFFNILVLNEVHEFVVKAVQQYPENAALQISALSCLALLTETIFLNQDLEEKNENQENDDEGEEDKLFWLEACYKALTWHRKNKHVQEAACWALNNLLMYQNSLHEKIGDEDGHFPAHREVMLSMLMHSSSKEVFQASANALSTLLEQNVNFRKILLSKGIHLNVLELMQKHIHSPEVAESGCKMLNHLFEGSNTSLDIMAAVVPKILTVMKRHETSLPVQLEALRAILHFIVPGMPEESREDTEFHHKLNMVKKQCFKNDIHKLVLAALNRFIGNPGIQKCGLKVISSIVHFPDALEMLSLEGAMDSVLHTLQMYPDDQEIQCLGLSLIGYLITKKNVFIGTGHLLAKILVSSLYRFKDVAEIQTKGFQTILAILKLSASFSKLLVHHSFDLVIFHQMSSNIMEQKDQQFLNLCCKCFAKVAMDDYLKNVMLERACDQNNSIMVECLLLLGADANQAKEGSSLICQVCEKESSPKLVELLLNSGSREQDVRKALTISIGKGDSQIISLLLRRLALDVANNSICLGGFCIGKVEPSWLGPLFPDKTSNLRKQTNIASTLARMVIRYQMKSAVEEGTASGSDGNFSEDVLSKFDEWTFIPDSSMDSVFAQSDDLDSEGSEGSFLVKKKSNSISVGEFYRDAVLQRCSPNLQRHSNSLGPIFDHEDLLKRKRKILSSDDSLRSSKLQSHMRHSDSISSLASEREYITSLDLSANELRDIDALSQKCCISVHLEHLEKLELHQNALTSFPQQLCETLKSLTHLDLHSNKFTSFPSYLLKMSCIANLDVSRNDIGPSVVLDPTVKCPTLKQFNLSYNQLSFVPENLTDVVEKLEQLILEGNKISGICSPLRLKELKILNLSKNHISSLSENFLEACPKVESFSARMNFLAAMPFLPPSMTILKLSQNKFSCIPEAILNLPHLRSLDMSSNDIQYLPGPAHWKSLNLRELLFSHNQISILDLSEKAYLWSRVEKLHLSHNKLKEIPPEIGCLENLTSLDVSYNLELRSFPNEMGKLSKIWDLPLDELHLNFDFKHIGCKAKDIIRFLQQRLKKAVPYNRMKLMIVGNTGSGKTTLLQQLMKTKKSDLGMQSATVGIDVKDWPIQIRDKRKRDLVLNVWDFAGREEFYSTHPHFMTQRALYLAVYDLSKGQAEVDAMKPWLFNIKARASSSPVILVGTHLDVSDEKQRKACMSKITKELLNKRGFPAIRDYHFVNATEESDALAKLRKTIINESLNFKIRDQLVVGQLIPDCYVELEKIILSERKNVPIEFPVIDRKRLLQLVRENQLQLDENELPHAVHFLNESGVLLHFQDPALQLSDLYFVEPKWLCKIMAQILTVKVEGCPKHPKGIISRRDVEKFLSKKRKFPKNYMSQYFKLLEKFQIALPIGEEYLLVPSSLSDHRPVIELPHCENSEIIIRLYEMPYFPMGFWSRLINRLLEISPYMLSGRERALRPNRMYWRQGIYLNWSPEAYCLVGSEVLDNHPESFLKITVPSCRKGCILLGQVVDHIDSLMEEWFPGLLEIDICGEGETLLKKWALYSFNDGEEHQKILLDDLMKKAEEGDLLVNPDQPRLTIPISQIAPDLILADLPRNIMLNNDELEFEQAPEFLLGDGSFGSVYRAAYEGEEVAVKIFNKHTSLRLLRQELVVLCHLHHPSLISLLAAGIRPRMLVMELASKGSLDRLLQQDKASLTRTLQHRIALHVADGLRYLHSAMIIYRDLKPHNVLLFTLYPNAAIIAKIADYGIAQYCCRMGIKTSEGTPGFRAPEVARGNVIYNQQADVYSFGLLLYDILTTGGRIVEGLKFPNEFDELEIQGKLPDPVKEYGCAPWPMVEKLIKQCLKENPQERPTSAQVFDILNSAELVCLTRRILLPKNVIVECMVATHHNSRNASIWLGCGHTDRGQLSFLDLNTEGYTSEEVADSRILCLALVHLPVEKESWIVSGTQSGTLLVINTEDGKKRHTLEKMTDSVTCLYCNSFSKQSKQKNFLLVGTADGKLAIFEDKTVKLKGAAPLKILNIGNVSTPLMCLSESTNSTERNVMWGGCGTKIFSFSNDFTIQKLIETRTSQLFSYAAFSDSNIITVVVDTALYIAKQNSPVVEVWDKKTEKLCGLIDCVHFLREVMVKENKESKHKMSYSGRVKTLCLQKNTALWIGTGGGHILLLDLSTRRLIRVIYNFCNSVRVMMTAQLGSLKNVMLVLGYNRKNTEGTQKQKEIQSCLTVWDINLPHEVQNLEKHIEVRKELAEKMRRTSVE

For assay [1], the target named is T1, 3xFlag-PPP2R2C wild-type (PP2A regulatory subunit B, gamma isoform a) (UniProt Q9Y2T4).
T1 sequence: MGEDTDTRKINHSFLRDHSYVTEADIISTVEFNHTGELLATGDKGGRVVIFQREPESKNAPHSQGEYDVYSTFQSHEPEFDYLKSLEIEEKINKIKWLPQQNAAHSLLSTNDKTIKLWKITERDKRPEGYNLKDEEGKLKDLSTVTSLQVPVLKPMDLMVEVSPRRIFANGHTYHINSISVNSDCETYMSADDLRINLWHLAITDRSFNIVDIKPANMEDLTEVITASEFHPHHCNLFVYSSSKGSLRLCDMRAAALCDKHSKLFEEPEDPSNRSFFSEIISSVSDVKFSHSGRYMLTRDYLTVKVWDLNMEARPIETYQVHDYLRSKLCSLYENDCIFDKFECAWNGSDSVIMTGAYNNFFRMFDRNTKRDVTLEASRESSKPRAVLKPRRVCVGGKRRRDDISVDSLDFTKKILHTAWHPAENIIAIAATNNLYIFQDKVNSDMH
In words: co-IP; HEK293T cells co-transfected with 3xFlag-PPP2R2C and 2xMyc-PAK6; lysate incubated with anti-Flag M2 agarose or GFP-TrapA beads for 2 h or overnight at 4°C; western blot (Figures 1B and 3D).

The target of assay [2] is GFP-PPP2CA wild-type (PP2A catalytic subunit) (UniProt P67775). Put plainly: co-IP; HEK293T cells co-transfected with GFP-PPP2CA WT and 3xFlag-PPP2R2C WT, S381A or S381D; lysate on GFP-TrapA or anti-Flag M2 agarose beads, 4°C; western blot with quantification (Figure 2). A general note: Immunoblotting shows a protein as a band on a membrane.
For assay [3], the target named is GFP-LRRK2 WT (leucine-rich repeat kinase 2) (UniProt Q5S007). Put plainly: co-IP; HEK293T cells co-transfected with GFP-LRRK2 WT (IP) and 3xFlag-PPP2R2C WT or S381A; lysate on beads, 4°C; western blot with quantification (Figure 4A, B).
The target is the same in assay [4]. Put plainly: proximity ligation; HEK293T cells co-transfected with GFP-LRRK2 WT and 3xFlag-PPP2R2C WT or S381A; fixed, permeabilised; rabbit anti-LRRK2 MJFF2 (c41-2) and mouse anti-Flag M2; confocal imaging.

These are yes or no findings as the source states them, for the method shown. In cells and extracts the contact can be indirect. Some entries that bind do so weakly or less than the wild type. Where a sequence is shown, tags or fusion partners need not be part of it.

B1: 2xMyc-PAK6 K436M (kinase dead) (enzyme, UniProt Q9NQU5 1-681)
chain: MFRKKKKKRPEISAPQNFQHRVHTSFDPKEGKFVGLPPQWQNILDTLRRPKPVVDPSRITRVQLQPMKTVVRGSAMPVDGYISGLLNDIQKLSVISSNTLRGRSPTSRRRAQSLGLLGDEHWATDPDMYLQSPQSERTDPHGLYLSCNGGTPAGHKQMPWPEPQSPRVLPNGLAAKAQSLGPAEFQGASQRCLQLGACLQSSPPGASPPTGTNRHGMKAAKHGSEEARPQSCLVGSATGRPGGEGSPSPKTRESSLKRRLFRSMFLSTAATAPPSSSKPGPPPQSKPNSSFRPPQKDNPPSLVAKAQSLPSDQPVGTFSPLTTSDTSSPQKSLRTAPATGQLPGRSSPAGSPRTWHAQISTSNLYLPQDPTVAKGALAGEDTGVVTHEQFKAALRMVVDQGDPRLLLDSYVKIGEGSTGIVCLAREKHSGRQVAVMMMDLRKQQRRELLFNEVVIMRDYQHFNVVEMYKSYLVGEELWVLMEFLQGGALTDIVSQVRLNEEQIATVCEAVLQALAYLHAQGVIHRDIKSDSILLTLDGRVKLSDFGFCAQISKDVPKRKSLVGTPYWMAPEVISRSLYATEVDIWSLGIMVIEMVDGEPPYFSDSPVQAMKRLRDSPPPKLKNSHKVSPVLRDFLERMLVRDPQERATAQELLDHPFLLQTGLPECLVPLIQLYRKQTSTC
As to B1, the binding entry in assay [1] was “binds”.

B2: 3xFlag-PPP2R2C wild-type (PP2A regulatory subunit B, gamma isoform a) (protein, UniProt Q9Y2T4-1 1-447)
chain: MGEDTDTRKINHSFLRDHSYVTEADIISTVEFNHTGELLATGDKGGRVVIFQREPESKNAPHSQGEYDVYSTFQSHEPEFDYLKSLEIEEKINKIKWLPQQNAAHSLLSTNDKTIKLWKITERDKRPEGYNLKDEEGKLKDLSTVTSLQVPVLKPMDLMVEVSPRRIFANGHTYHINSISVNSDCETYMSADDLRINLWHLAITDRSFNIVDIKPANMEDLTEVITASEFHPHHCNLFVYSSSKGSLRLCDMRAAALCDKHSKLFEEPEDPSNRSFFSEIISSVSDVKFSHSGRYMLTRDYLTVKVWDLNMEARPIETYQVHDYLRSKLCSLYENDCIFDKFECAWNGSDSVIMTGAYNNFFRMFDRNTKRDVTLEASRESSKPRAVLKPRRVCVGGKRRRDDISVDSLDFTKKILHTAWHPAENIIAIAATNNLYIFQDKVNSDMH
As to B2, the binding entry in assay [2], in assay [3] and in assay [4] was “binds” each time.

B3: 3xFlag-PPP2R2C S381A (phosphodeficient) (protein, UniProt Q9Y2T4-1 1-447)
chain: MGEDTDTRKINHSFLRDHSYVTEADIISTVEFNHTGELLATGDKGGRVVIFQREPESKNAPHSQGEYDVYSTFQSHEPEFDYLKSLEIEEKINKIKWLPQQNAAHSLLSTNDKTIKLWKITERDKRPEGYNLKDEEGKLKDLSTVTSLQVPVLKPMDLMVEVSPRRIFANGHTYHINSISVNSDCETYMSADDLRINLWHLAITDRSFNIVDIKPANMEDLTEVITASEFHPHHCNLFVYSSSKGSLRLCDMRAAALCDKHSKLFEEPEDPSNRSFFSEIISSVSDVKFSHSGRYMLTRDYLTVKVWDLNMEARPIETYQVHDYLRSKLCSLYENDCIFDKFECAWNGSDSVIMTGAYNNFFRMFDRNTKRDVTLEASREASKPRAVLKPRRVCVGGKRRRDDISVDSLDFTKKILHTAWHPAENIIAIAATNNLYIFQDKVNSDMH
B3: the binding result in assay [2], in assay [3] and in assay [4] was “binds” in each case.

B4: 3xFlag-PPP2R2C S381D (phosphomimetic) (protein, UniProt Q9Y2T4-1 1-447)
chain: MGEDTDTRKINHSFLRDHSYVTEADIISTVEFNHTGELLATGDKGGRVVIFQREPESKNAPHSQGEYDVYSTFQSHEPEFDYLKSLEIEEKINKIKWLPQQNAAHSLLSTNDKTIKLWKITERDKRPEGYNLKDEEGKLKDLSTVTSLQVPVLKPMDLMVEVSPRRIFANGHTYHINSISVNSDCETYMSADDLRINLWHLAITDRSFNIVDIKPANMEDLTEVITASEFHPHHCNLFVYSSSKGSLRLCDMRAAALCDKHSKLFEEPEDPSNRSFFSEIISSVSDVKFSHSGRYMLTRDYLTVKVWDLNMEARPIETYQVHDYLRSKLCSLYENDCIFDKFECAWNGSDSVIMTGAYNNFFRMFDRNTKRDVTLEASREDSKPRAVLKPRRVCVGGKRRRDDISVDSLDFTKKILHTAWHPAENIIAIAATNNLYIFQDKVNSDMH
As for B4, the binding entry in assay [2] is “binds”.
